Some of these results come from one statement about several compounds together.
Test system: monoclonal antibody 5-21-3
Assay: Immunoprecipitation of [125I] synthetic peptides by 5-21-3
Assay type: binding, mouse
Details: Table 5
Procedure: Synthetic peptides were radiolabeled with ^125I (Amersham) by the chloramine T method (N. M. Hunter, “Radioimmunoassay” in D. M. Weir, Ed., Handbook of Experimental Immunology, [Blackwell Scientific Publications, 1973]). Generally, 2-6 ul of 100 mCi/ml ^125I were added to 10-50 ug of peptide in PBS, pH 7.4. Approximately 10 ug of freshly prepared (1 mg/ml in PBS) chloramine T were added to the mixture maintained at 4° C. After 5 min., [^125I]peptide was separated from free ^125I by passage of the reaction mixture through a 3 ml (bed volume) column of Biogel P-6 or P-2, as required. Fractions (200 ul each) containing [^125I]peptide were pooled and diluted into PBS containing 20% fetal calf serum. Rough estimations of ^125I cpm bound to peptide were made by acid precipitation. An aliquot of labeled peptide was diluted into 1 ml of ice cold 50% trichloroacetic acid (TCA) overlaying a 0.45 um filter (made of mixed cellulose esters) set on a scintered glass filter connected to a vacuum apparatus. Precipitated protein was fixed onto the filter by application of vacuum, and filters were washed with ice-cold 50% TCA. Background cpm adhering non-specifically to the filter were estimated by repeating the procedure using a non-precipitating buffer. […]

Substance	5-21-3 concentration required to demonstrate binding of the peptide
YNYTSLIHSLIEESQNQQEKNEQELLELDKWANLWNWL [P126-162]	at least 100 ug/ml
H-DREINNYTSLIHSLIEESQNQQEKNEQELLELDK-OH [P121-154]	at least 100 ug/ml
